Experimental data: PubChem BioAssay AID624297 (National Center for Advancing Translational Sciences (NCATS), 2012)
The whole screen tested about 340,000 compounds, of which about 6,200 (1.8%) were called active. The shares of active, inactive and inconclusive entries below differ from those in the screen. The call rests on the fitted dose curve; in most records, active means well fitted activation curve with a large enough effect; inconclusive means small, poorly fitted or top-dose-only effect; inactive means no such curve, though single readings can be large or run the other way. A potency beside an inconclusive call is a rough fit, not a confirmed value.

test: A quantitative high throughput screen for small molecules that induce DNA re-replication in SW480 colon adenocarcinoma cells.; further: nearly all actives have a fitted effect of over 55% in size; on re-replication activation: % of control where 0% means no effect; details: Hoechst DNA content imaging, 48 h; re-replication activation: at 46.1 µM (top of the series) unless noted
Procedure, shortened: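 DNA re-replication was detected as more nuclei of elevated Hoechst intensity after 48 hr exposure to compound (23 nL pinned per well of 250 cells).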
Potency means the concentration at half of the fitted maximal effect.

| SMILES | re-replication activation | Potency |
| --- | --- | --- |
| COCCNCCOc1ccccc1-c1ccccc1 | inactive: -1.03% [at 9.22 µM] | – |
| O=C(CN1CCN(c2ccc(F)cc2)CC1)c1ccc(O)cc1O | – | inconclusive: 16.4 µM [activator, partial curve] |
| O=C(C[C@H]1C[C@H](C(=O)N2CCOCC2)[C@@]2(CCC3CCCC3)c3[nH]c4cc(-c5ccco5)ccc4c3CCN2C1=O)NCCCn1ccnc1 | – | inconclusive: 20.6 µM [activator, partial curve, poor fit] |
| CCCn1c(=NC(=O)c2ccco2)c(C(=O)OCC)cc2c(=O)n3ccccc3nc21 | inactive: -1.93% | – |
| NNC(=O)c1cc(-c2cccs2)nc2ccccc12 | – | inconclusive: 11.6 µM [activator, partial curve] |
| O=C(CCc1ccccc1)NNc1ccc(F)cc1 | – | inconclusive: 16.4 µM [activator, single point] |
| CCc1ccc(C(=O)NNc2ccc(Cl)cc2)cc1 | – | inconclusive: 6.51 µM [activator, partial curve, poor fit] |
| O=C(NCc1cccc(Cl)c1)c1ccc2nc[nH]c2c1 | – | inconclusive: 6.51 µM [activator, single point] |
| Cc1ccc(NC(=O)CCC(=O)N/N=C/c2ccccc2O)cc1 | inactive: 11.5% | – |
| CCOc1ccc2ncc(S(=O)(=O)c3ccc(C)cc3)c(N3CCC4(CC3)OCCO4)c2c1 | – | inconclusive: 25.9 µM [activator, partial curve, poor fit] |
| CC(C)(C)c1ccc(C(=O)NCCC(=O)N2CCN(c3ncccn3)CC2)cc1 | – | inconclusive: 0.0041 µM [activator, full curve, poor fit] |
| COc1ccc(S(=O)(=O)n2cnc3cc(C)c(C)cc32)cc1C | inactive: 4.8% | – |
| CC(=O)c1ccc(OCCCC(=O)NCCc2ccccc2)cc1 | – | inconclusive: 18.4 µM [activator, single point] |
| S=c1[nH]nc(-c2ccc(Br)cc2)n1Cc1ccccc1 | inactive: -11.6% | – |
| CC1(C)CC(=O)C(C=NCCCN2CCCC2=O)=C(O)C1 | – | inconclusive: 29.1 µM [activator, single point] |
| CC1=C(C(=O)NC2CCCC(C)C2C)C2(CCCCC2)OC1=O (stereo not drawn) | – | inconclusive: 14.6 µM [activator, partial curve, poor fit] |
| COc1cccc(N2C(=O)C3CCCN3C2=S)c1 (stereo not drawn) | – | inconclusive: 7.31 µM [activator, partial curve, poor fit] |
| CN1C2CCC1CC(NC(=O)CSCc1ccc(Cl)cc1Cl)C2 (stereo not drawn) | – | inconclusive: 20.6 µM [activator, single point] |
| COC(=O)c1cc(C)nc2c1C(=O)C(=O)C=C2N1CCOCC1 | – | inconclusive: 0.651 µM [activator, full curve, poor fit] |
| O=C(c1ccc2c(c1)N(Cc1ccccc1)C(=O)CS2)N1CCOCC1 | inactive: -0.759% | – |
| CCN(CC)CCN1C(=O)c2oc3ccccc3c(=O)c2C1c1ccccc1 (stereo not drawn) | – | inconclusive: 29.1 µM [activator, single point] |
| Cc1[nH]n(-c2ccccc2)c(=O)c1/C=N/n1c(C)nc2ccccc2c1=O | – | inconclusive: 29.1 µM [activator, single point] |

| SMILES | re-replication activation | Potency |
| --- | --- | --- |
| CC1CCCN(S(=O)(=O)c2ccc3oc(=O)ccc3c2)C1 (stereo not drawn) | – | inconclusive: 29.1 µM [activator, single point] |
| COc1ccc(-c2oc3ncnc(NCCCN4CCOCC4)c3c2-c2ccc(OC)cc2)cc1 | – | inconclusive: 16.4 µM [activator, partial curve] |
| CCn1c(N)c(C(=O)COC(=O)CCc2nc3ccccc3c(=O)[nH]2)c(=O)[nH]c1=O | – | inconclusive: 2.59 µM [activator, partial curve] |
| O=C(NN1C(=O)c2ccccc2NC1c1ccc([N+](=O)[O-])o1)c1ccc([N+](=O)[O-])cc1 (stereo not drawn) | – | inconclusive: 29.1 µM [activator, single point] |
| COC(=O)c1cc(Cl)c(NC(=O)/C=C/c2ccc(OC)c(OC)c2)cc1OC | – | inconclusive: 32.6 µM [activator, partial curve, poor fit] |
| O=C(N/N=C/c1cc(Br)cc(Br)c1O)c1cccc(S(=O)(=O)N2CCOCC2)c1 | – | active: 0.651 µM |
| FC(F)(F)c1cc(-c2ccco2)nc(NCCc2ccccc2)n1 | – | inconclusive: 29.1 µM [activator, single point] |
| Cc1[nH]c2ccccc2c1C(=O)COC(=O)c1ccccc1O | inactive: 0.961% | – |
| Cc1cc(C)cc(NC(=O)COc2coc(CN3CCc4ccccc43)cc2=O)c1 | – | inconclusive: 29.1 µM [activator, single point] |
| c1ccc2cc(OCc3nc4ccccc4[nH]3)ccc2c1 | – | inconclusive: 18.4 µM [activator, single point] |
| O=C(c1cn(Cc2ccccc2)nc1-c1cccnc1)N1CCN(Cc2c(F)cccc2Cl)CC1 | inactive: 0.731% | – |
| COCCCN(C(=S)NC(=O)C(C)(C)C)c1c(N)n(Cc2ccccc2)c(=O)[nH]c1=O | – | inconclusive: 29.1 µM [activator, single point] |
| CC(=O)Nc1ccc(NC(=O)c2ccc(COc3ccccc3Br)o2)cc1 | – | inconclusive: 29.1 µM [activator, single point] |
| COc1ccc(S(=O)(=O)N2CCOCC2)cc1NC(=O)CN1CCCC1 | inactive: -8.15% | – |
| FC(F)(F)c1cccc(CNC(=S)Nc2ccccc2)c1 | – | inconclusive: 3.66 µM [activator, full curve] |
| Cc1cc(Cl)c(S(=O)(=O)N2CCN(c3ccc(F)cc3)CC2)cc1OCC(=O)NC1CCCCC1 | inactive: -0.331% | – |
| Cc1cc(N)ccc1N1CCCC1 | inactive: -2.13% | – |
| CC1(C)CCSC(/C=C/c2ccccc2)=N1 | – | inconclusive: 18.4 µM [activator, partial curve] |
| Cc1occc1-c1nnc(SCC(=O)c2c[nH]c3ccccc23)n1C | inactive: -1.49% | – |
| COc1cc(/C=N/Nc2ccccc2[N+](=O)[O-])ccc1OC(=O)c1ccccc1F | inactive: -7.87% | – |
| COc1ccc(C(=O)NC2CCN(C(=S)Nc3ccc(C)c(C)c3)CC2)cc1 | – | inconclusive: 23.1 µM [activator, single point] |

Complete entries, quoted from the list.
`COC(=O)c1cc(Cl)c(NC(=O)/C=C/c2ccc(OC)c(OC)c2)cc1OC` in the list: Potency: inconclusive: 32.6 µM [activator, partial curve, poor fit]
`COc1ccc(-c2oc3ncnc(NCCCN4CCOCC4)c3c2-c2ccc(OC)cc2)cc1` in the list: Potency: inconclusive: 16.4 µM [activator, partial curve]
`Cc1cc(N)ccc1N1CCCC1` in the list: re-replication activation: inactive: -2.13%
